Consider 4 compounds from patent US20090012148A1, “REDUCING CELLULAR CHOLESTEROL LEVELS AND/OR TREATING OR PREVENTING PHOSPHOLIPIDOSIS” (priority 2005, published 2009).

The test system of this data set is CT60 cells. The data set is described as follows: Gas chromatography cholesterol assay. The format is cell-based, Chinese hamster. On the procedure:
The cholesterol lowering effect of the 14 hit compounds identified by filipin labeling was measured by an alternative chemical method that involved GC separation of solvent-extracted cellular lipids (43). CT60 cells were treated with compounds at 10 μM under the same conditions as in the screening assays. Since the GC assay estimates FC content per cell, the values are compared to the average filipin intensity assay (Table 1).
CT60 or CT43 cells were plated on day 1 in 6-well plates. Hit compounds were added to the cells at 10 μM concentration. Cells were incubated for 24 h. Cellular lipids were extracted with hexane: iso-propyl alcohol (3:2 v/v). The lipid extracts were dried and re-suspended in hexane followed by separation on gas chromatograph using β-sitosterol as an internal standard.
Procedure: CT60 cells were plated in 6-well plates in Ham's F-12/1.176 g/L sodium bicarbonate/2 g/L glucose/10% FBS. Following 24 h incubation, cells were treated with 10 μM of each compounds, medium being replaced with Ham's F-12/1.176 g/L sodium bicarbonate/2 g/L glucose/5.5% FBS/20 mM HEPES. The change of the medium in the wells was performed to have experimental conditions similar to those used for the screening once chemical compounds were added to the cells. After 18 h treatment with compounds, cells were washed twice with Hank's balanced salt solutions (HBSS). Cellular lipids were extracted with hexane/isopropyl alcohol (3:2 v/v) (43) dried and resuspended in hexane followed by separation on a gas chromatograph (GC) using following conditions. A Hewlett Packard GC model HP 5890 series II (Palo Alto, Calif.) equipped with a flame ionization detector, split-splitless injector, and 15 m×0.53 mm HP-5 capillary column coated with […] film thickness of 5% phenyl methyl siloxane was used to separate free cholesterol. The injection temperature was maintained at 255° C. and oven temperature was held isothermally at 260° C. using helium as a mobile phase at 30 mL/min flow rate. The free cholesterol (FC) was quantified using beta-sitosterol as internal standard to correct for lipid losses during extraction.

For the compound `CCN(CC)c1ccc(C=C2SC(=S)N(c3ccc(OC)cc3)C2=O)cc1` [Compound 2-a-3], the “Protein Content (μg/well) Fraction of Control” value is given as 0.92 ± 0.04 Fraction of Control. Consider `O=[N+]([O-])c1cccc(C=NNc2nc(Nc3cccc4ccccc34)nc(N(c3ccccc3)c3ccccc3)n2)c1` [Compound 2-a-13], for which the “Protein Content (μg/well) Fraction of Control” value was 0.97 ± 0.03 Fraction of Control. For `C=CCN1C(=O)C(=Cc2cc(C)n(-c3ccccc3)c2C)C(C(=O)OC)=C1C` [Compound 2-a-15], the “Protein Content (μg/well) Fraction of Control” value was 0.84 ± 0.02 Fraction of Control. For the compound `COc1ccccc1Nc1nc(Nc2ccccc2OC)nc(Nc2ccccc2OC)n1` [Compound 2-a-9], the “Protein Content (μg/well) Fraction of Control” value was 0.94 ± 0.05 Fraction of Control.
